Library screening results

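Viability assay of Plasmodium falciparum sporozoites; the read-out is not stated. The concentration is filed as 10 mM, unlikely as a test dose, so the dose is not known. Direction is inferred from retests: higher values go with lower viability. Strong results were mostly tested again. Size under these conditions: about 34,000 compounds, about 280 of them at 50% or above in at least one test.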

Each number is a percent effect as filed. The record does not define 0% and 100%; most values in the screen are far below 50% and negative numbers occur (in some assays of this library far below -100). The compounds are a random part of those screened.

* CN1CCN(Cc2cn3c(n2)CN(Cc2ccc(F)cc2)CC3)CC1.O=C(O)C(F)(F)F.O=C(O)C(F)(F)F.O=C(O)C(F)(F)F | 11.14%
* CC(C)(C)c1ncc(C(=O)NCCNC(=O)c2ccc(O)cc2)s1 | 2.244%
* [H][C@]12CN(CCOC)C(=O)[C@@]1([H])CN(c1cnccn1)C2 | 4.514%
* O=C(CN1CCCC1Cn1cncn1)NCCOc1cccc(F)c1 (configuration not stated) | -1.222%
* Cc1nc(C2CCCN2CCS(C)(=O)=O)no1 (configuration not stated) | 12.68%
* Cc1ccccc1C1(C(=O)NCCN(C)C)CCOCC1 | 6.675%
* Cc1cnn(CC2CCCN2CC(=O)N(C)Cc2ccc(C)o2)c1 (configuration not stated) | 0.3529%
* CCc1nccn1-c1cccc(C2CCN(C(=O)COC)CC2)n1 | -0.2805%
* CN(C)C(=O)CN1C(=O)CCC12CCN(Cc1cccn1C)CC2.O=C(O)C(F)(F)F | 0.5114%
* CC1(C)CC(N(Cc2cccnc2)Cc2cccc(F)c2)CC(C)(C)N1.O=C(O)CC(O)(CC(=O)O)C(=O)O | 4.351%
* CN(C)c1nc2c(c(N(C)Cc3n[nH]c4c3CCCCC4)n1)CCNC2 | -8.154%
* [H][C@@]12COC[C@]1(CNC(=O)c1ccco1)CN(Cc1cccc(F)c1)C2 | 1.476%
* Cc1[nH]c2ccc(CNc3cc(C(=O)NC(C)C)ccn3)cc2c1C | -23.23%
* COc1ccc(CN2CC[C@H](NC(C)=O)[C@@H](O)CC2)c(OC)c1 | -16.94%
* [H][C@@]12COC[C@]1([H])[C@@H](OCCN(C)C)CN2C(=O)c1ccc(C#N)cc1 | -20.44%
* O=C(O)C(F)(F)F.O=C(c1cnccn1)N1CCCC2(CCN(Cc3ccsc3)C2)C1 (configuration not stated) | 11.64%
* COC(=O)c1ncccc1N1CCCCC1 | -0.7785%
* CC(=O)N1CCC(c2cnc(-c3c(C)nn(C)c3C)cn2)CC1 | -2.252%
* Cc1nc(O)c2nnn(C[C@H]3CCCN3C(=O)CCC3CCCC3)c2n1 | -15.05%
* CC(=O)c1cn(CC(=O)NC(C(=O)O)C(C)C)c2ccccc12 (configuration not stated) | -12.45%
* CC(C)(C)n1cc(C(=O)N2CCN(Cc3ccsc3)CC2)cn1 | -8.244%
* CC(C)NC1CCc2[nH]c(=O)ccc2C1.O=C(O)C(F)(F)F (configuration not stated) | -0.08562%
* Cc1ccc(CN(CCCn2ccnc2)Cc2cc(F)ccc2F)s1.O=C(O)CC(O)(CC(=O)O)C(=O)O | 11.83%
* COc1ccc(-c2cc(C3CCCCCN3S(C)(=O)=O)on2)cc1 (configuration not stated) | 6.737%
* COCCN1CCC2(C1)c1ccccc1S(=O)(=O)N2C.O=C(O)C(F)(F)F (configuration not stated) | 11.61%
* COc1ccc2c(c1)C(=O)NC1(CC2)CCN(Cc2ccccc2)C1 (configuration not stated) | -3.571%
* O=C(C1CC1)N1CCc2nc(C3CCN(C(=O)C4CC4)C3)nc(O)c2C1 (configuration not stated) | 2.355%
* CS(=O)(=O)N1CCC(O)(Cn2c(C3CC3)nc3ccccc3c2=O)CC1 | -9.123%
* CS(=O)(=O)c1cccc(C(=O)NCCCN2CCc3ccccc3C2)c1 | 4.338%
* CCc1nc(CN(C(C)=O)C2CCN(Cc3csc(C)n3)C2)no1 (configuration not stated) | 3.582%
* CC(C)c1cc(O)nc(C2CCCN2C(=O)C2CC2)n1 (configuration not stated) | 19.51%
* Cc1ccc2c(c1)c(CNC(C)Cn1ccnc1)nn2C (configuration not stated) | 0.4353%

3 of the entries, repeated:

* Cc1nc(C2CCCN2CCS(C)(=O)=O)no1 (configuration not stated) : 12.68%
* CC(=O)N1CCC(c2cnc(-c3c(C)nn(C)c3C)cn2)CC1 : -2.252%
* CCc1nccn1-c1cccc(C2CCN(C(=O)COC)CC2)n1 : -0.2805%

From ChEMBL document CHEMBL3988442, “University of Dundee, Small-Polar-MMV Screening Library” (2021).